Results taken from PubChem BioAssay AID1508600 (Functional Genomics Laboratory (NCATS/FGL), 2020).
The whole screen tested about 53,000 sequences, of which about 3,700 (7%) were called active.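 Rule for the calls: active = gene knockdowns whose robust z-score for IL-1 alpha signal is at least 2 or at most -2, so actives lie on both sides; inactive = the rest.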 The list shows a part of the results.

Assay: Components of the Cytosolic LPS Sensing Pathway: Gene Identification via Genome-wide siRNA Screen;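 note: robust z of the log signal after scaling to non-targeting control siRNA wells of the plate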
Settings: RAW264.7 macrophages, IL-1a HTRF, actives lie on both sides, screened at 100 nM (by protocol), cells primed 5 h with Pam3CSK4 first
Summary of the method: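 Using IL-1a HTRF as read-out, the screen measured release from RAW264.7 cells after 48h siRNA knockdown (100 nM), 5 h Pam3CSK4 priming and 24 h cytosolic LipidA. Values were expressed relative to negative-control wells as robust z-scores.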

Sequence | z-score
GGGCCUAAAAGGGUUAAGGTT against Prr14l | inactive: 0.827
GGUGUCUCUCUAUGAUUUATT against Otoa | inactive: 1.76
CCCGAGAAUGACUAUGAAGTT against Grid2ip | inactive: -0.309
GGUAUAAAAGGUUGCCAAATT against Efnb2 | inactive: -1.71
GGUUUAGCAUCGUCCUAUATT against Crmp1 | inactive: -0.495
CCAUGGAAACUGAAUUCUGTT against Ears2 | inactive: -0.398
AAGACCUUCCACAUGUUAATT against Fam169b | inactive: 0.501
GCUUCAGGCAAGGUUUAAATT against Ppp1r2 | inactive: 0.571
GGAAAAAGAUCCAGAUUUGTT against Adprh | inactive: 1.21
GCCGAUCACACAGUGGAAATT against Spin2c | inactive: 0.024
GGGUAAUACUCUUUGGUGCTT against Olfr594 | inactive: 0.34
CCCUGUAUAUUGCAUUUCCTT against Pcdhb21 | inactive: 0.198
GGUGGAAGAAGAAAUUGUCTT against Tpd52l2 | active: -2
GCCUUCUUAACUUCAUCACTT against Taar5 | inactive: 1.16
CCUGUAUUAAACAGGGUUCTT against Zfp60 | inactive: -0.883
UGCUGGUGCCUGAUGACCATT against Defa1 | inactive: -0.154
CGACUUGACAUCGUCAGUATT against Bloc1s4 | inactive: 1.03
CCUUGUGACUCUAAGAAUATT against Bcl2l14 | inactive: -0.0665
CCUGAAGCGGAAGUGCAAATT against Wnt10b | inactive: 0.784
GAGUGUGAGGACUCAGACUTT against Gpbp1l1 | inactive: -0.896
CCUCUUACCGCUUUCAAUATT against Arf1 | inactive: -0.688
GGAUGAGGAUGUGACCAAGTT against Prokr2 | inactive: -0.241
GGAGCAAAGCCUGUGAACUTT against Dffa | inactive: 0.905

Sequence | z-score
GGUGGCUAUUGAUGAAAACTT against Zfyve19 | inactive: -0.813
GGUAUUGUGUUUCCCAAACTT against Acsf2 | inactive: 0.28
GCCUCCUAUAUAAACAUUGTT against Olfr1321 | inactive: 1.02
GCUUGAUGACUCUAAACCUTT against Runx2 | inactive: 1.29
AGAUCGUGGACCAUGUGAATT against Nxph4 | inactive: -0.842
GGCCCGAAACAAGAAAUCCTT against Ikbke | inactive: 0.957
GCACCAUGUAUACAAAAGATT against Pcdhb3 | inactive: 0.0679
GGUUUUGUAGGCAUGCUUGTT against Slc10a3 | inactive: -1.38
GGCCACAUGUGUGUUCUGATT against Glt1d1 | inactive: -1.77
CCCUAUAAUUGCCUUAAUATT against Akip1 | inactive: 0.765
GCUAGAGGAACUAGAACCATT against Mrpl54 | inactive: 1.32
CGAAAAUAGUGAGGAUUAUTT against Hrnr | inactive: -0.719
CCUCACCCUUUCCAAAAAATT against Polr2f | inactive: -1.03
GGAUAGUAUACUAGAAGAATT against Mms22l | inactive: -1.4
GGGCACAAGUACCAUCUUATT against Lxn | inactive: -0.113
GGGUUCAAUGCAGUCAUGATT against Slc25a20 | inactive: -1.64
GCGAUCAAAAAAGUUGCCUTT against Arhgap44 | inactive: -0.387
GCUCUCAUGACUCCUUUUATT against Olfr99 | inactive: -1.41
CCUCAUCGACAUAAUGAUUTT against Samhd1 | inactive: -0.0182
CGUCUCCUGAACUUAGAAUTT against Rab5if | inactive: -0.322
GCUACAAUCAAAAUUAUGCTT against Defb21 | inactive: -1.14
GGAAGACUCGGUUCAUCAUTT against Pnliprp1 | inactive: 0.884
GCUUUGUUAGUGUUAGUCUTT against Lamc1 | inactive: -0.322

Looked up one by one from the entries so far, four records:
Sequence | z-score
GCUUUGUUAGUGUUAGUCUTT against Lamc1 | inactive: -0.322
GCACCAUGUAUACAAAAGATT against Pcdhb3 | inactive: 0.0679
GCCUCCUAUAUAAACAUUGTT against Olfr1321 | inactive: 1.02
GCUACAAUCAAAAUUAUGCTT against Defb21 | inactive: -1.14

Continued.

Sequence | z-score
CCAAGCCUAUUCUUAACUUTT against Cxcl3 | inactive: 0.445
CGUGGUAGUUAAUUGUUCATT against Map3k1 | inactive: 1.87
GGCCAAUGACCAGACCUUGTT against Hrh1 | inactive: 0.309
CCGUUUUCGCUUUGAGAAATT against Smarcad1 | active: 4.47
GGUGGAUUAAGUCUCAAAATT against Pcdhb22 | inactive: 0.592
GGUAAAGACACAGAGCUGCTT against Cntd1 | inactive: 0.202
GCACAAGUCCCUACCACUUTT against Birc3 | inactive: 0.12
GCGUAGAGACAAAGUAGAATT against Gpr141 | inactive: 1.8
GGAAGUUAUCAACAUAGUUTT against Ern1 | inactive: 0.918
GCAAUGUUAUUUUCACCAGTT against Slc3a1 | inactive: 0.61
GCUAUUGGCGAGAAUUAAATT against Smarca1 | inactive: -0.0414
CGGGUCUAUCGAUUUCUUCTT against Fcna | inactive: 0.0939
GGAGCGAUUUCAUUUGGAUTT against Wwc2 | inactive: 0.13
GGGCAUGUAUAUAAUGUUCTT against Kifc3 | inactive: -0.325
GGCCAGCUGAAAGAGGUUCTT against Ndufaf5 | inactive: 0.0496
CCUUAUGGAUUUAGCAUCATT against Lamb3 | inactive: 0.917
CGGAAUAUAGAAUGAAACCTT against Cd200r3 | inactive: 0.731
GGUGUCAUUCAACUUGCAUTT against Rnase10 | active: -2.55
GCUUUUAUUGGCCACCCUGTT against Dennd4b | inactive: 0.0854
GAGUCUUCUCUGCCUGUCUTT against Lce3c | inactive: -0.106
GGACAACGUAGCCUUCGUUTT against Ncln | inactive: -0.562
CCCACAAUCUUUUUGUAAATT against Sost | inactive: -0.75
